Laboratory results reported in US20240199695A1 (TRANSFERT PLUS S E C, published 2024).
These are yes or no findings as the source states them, for the method shown. Some results given as binding are weak or reduced against the parent protein; the word gives no strength.

Protein sequences, listed by entry. Tags and fused reporters are not part of them. Residues count along the entry.
UniProt Q99523, residues 78-755: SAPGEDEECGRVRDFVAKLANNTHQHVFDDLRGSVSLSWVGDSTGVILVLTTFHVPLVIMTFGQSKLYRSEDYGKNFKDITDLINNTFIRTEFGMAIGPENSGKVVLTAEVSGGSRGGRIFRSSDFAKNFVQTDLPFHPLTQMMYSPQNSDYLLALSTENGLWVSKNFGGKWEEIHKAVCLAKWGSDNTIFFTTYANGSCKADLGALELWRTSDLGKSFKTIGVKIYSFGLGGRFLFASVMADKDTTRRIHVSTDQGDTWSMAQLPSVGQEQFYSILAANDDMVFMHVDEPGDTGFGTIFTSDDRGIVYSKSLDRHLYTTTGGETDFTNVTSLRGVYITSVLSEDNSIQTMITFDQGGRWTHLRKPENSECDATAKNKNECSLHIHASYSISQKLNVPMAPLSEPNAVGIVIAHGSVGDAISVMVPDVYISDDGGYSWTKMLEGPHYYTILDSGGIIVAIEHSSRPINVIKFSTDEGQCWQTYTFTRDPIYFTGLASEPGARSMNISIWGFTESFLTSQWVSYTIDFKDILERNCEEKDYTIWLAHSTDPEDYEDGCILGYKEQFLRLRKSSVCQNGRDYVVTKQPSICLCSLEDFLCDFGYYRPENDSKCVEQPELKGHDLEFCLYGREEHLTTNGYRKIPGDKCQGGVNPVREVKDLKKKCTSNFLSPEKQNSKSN

Key:
soluble form of sortilin [1] = biological target: soluble form of sortilin (UniProt Q99523); assay: SPR; biotinylated KBP-103 on a streptavidin chip, soluble sortilin injected
soluble form of sortilin [2] = biological target: soluble form of sortilin (UniProt Q99523); assay: SPR; biotinylated Katana peptide on a streptavidin chip, soluble sortilin injected
soluble form of sortilin [3] = biological target: soluble form of sortilin (UniProt Q99523); assay: SPR; biotinylated KBP-103 immobilised on a streptavidin sensor chip, soluble sortilin injected over it
soluble form of sortilin [4] = biological target: soluble form of sortilin (UniProt Q99523); assay: SPR

Measured: binding

IKLSGGVQAKAGVINMFKSESYK (biotin molecule connected at the C-terminal end, K(Biotin)) [KBP-103: …(Biotin)]
binds: all assays above
